## Screening data, single-dose tests

Source: ChEMBL document CHEMBL3988442, “University of Dundee, Small-Polar-MMV Screening Library” (2021).

The filed quantity is “Percent Effect” (%). The controls that fix the scale are not given in the record; negative values are as filed. The compounds are a random part of those screened. Two or more numbers in one place are separate tests of the same structure; such repeats can differ widely.

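Phenotypic screen: M. tuberculosis growth, glucose 7H9 medium, 3 days; the read-out is not stated. Concentration: 50 µM. Direction is inferred from retests: higher values go with more growth inhibition. About 69,000 compounds were tested under these conditions; 1.1% (about 760) showed 50% or more at least once.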

With CC(C)c1ncc2c(n1)CN(Cc1cccc(C#N)c1)CC2 the screen gave 3.461%. For O=C(c1cc(F)ccc1F)C1CCN(C(=O)c2ccco2)CC1 the result was 9.765%. CCCc1nc(C)cc(N2CCC3(CCC(=O)N(CCOC)C3)CC2)n1 gave 15.24%. Result for COc1ccc(C2SCC(=O)Nc3ccsc32)cc1OC (stereo not shown) was -14.09%. With O=C(NCCN1CCCS1(=O)=O)c1scnc1Cl the screen gave 6.981%. For Cn1cnc2c1CCN(CCCc1ccccc1)C2 the result was -5.8%.

With CC(C)C(CNC(=O)Nc1cn[nH]c1)N1CCOCC1 (stereo not shown) the screen gave 12.31%. O=C(O)C(F)(F)F.[H][C@@]12CCN(Cc3cc(C)on3)C[C@]1([H])OCCN(c1ccsc1)C2=O read -2.633%. With [H][C@@]12CCCN1C[C@H](CCSC)N(Cc1cnn(C=C)c1C)C2 the screen gave -14.12%. Cc1cnn(C2CCCN(C(=O)c3ccnc(N(C)C)c3)C2)c1 (stereo not shown) gave -60.24%. For CCS(=O)(=O)CC(=O)Nc1cccc2c1CN(CC(C)C)C2 the result was -8.442%. Result for COc1ccc(C(N)=O)cc1NCc1noc(-c2ccsc2)n1 was 15.93%.

Cn1cc(C(O)CNC(=O)c2sccc2OC(F)F)cn1 (stereo not shown) gave -49.16%. COc1ccsc1C(=O)NC1CCN(c2cccc(F)c2)CC1 read 4.468%. Cc1n[nH]c(C)c1NC(=O)CCc1cccc(C2CCCN(C)C2)n1 (stereo not shown) gave 16.84%. COc1ccc(CCNC(=O)NCC(O)c2cccc(F)c2)cc1 (stereo not shown) read -6.778%. CC(Cc1ccccc1F)C(=O)Nc1ccc(OCCC(N)=O)cc1 (stereo not shown) gave -22.94%. With Fc1ccc(Oc2ccc(CNCC3CNc4ccnn4C3)cn2)cc1 (stereo not shown) the screen gave 10.93%.

With CCNC(=O)N1CCC(NC(=O)NCCc2ccc(C)cc2C)C1 (stereo not shown) the screen gave 20.67%. Result for COc1c(CNCc2ccccc2Cn2cccn2)c(C)nn1C was 0.4171%. Result for CNC(=O)C1(C)CN(Cc2cn(C)c3ccc(F)cc23)CCO1 (stereo not shown) was 10.98%. Cc1nn(C)c(Cl)c1C1CCCN1c1ncnc2[nH]ccc12 (stereo not shown) gave 1.999% and 3.009%. CN(C)C(=O)C1CCC2(CCN(C(=O)Nc3ccccc3)CC2)O1 (stereo not shown) gave -3.012%. O=C(O)C(F)(F)F.O=C(O)C(F)(F)F.O=C(O)C(F)(F)F.[H][C@@]12COC[C@]1([H])[C@H](OCc1ccccn1)CN2Cc1cccnc1 gave 17.47%.

For CCn1cnnc1CNC(=O)c1cc(Cl)ccc1F the result was -7.156%. Cc1ccc(NC2CCN(C(=O)c3cccn3C)CC2)nn1 read -10.62%. COc1ccc(Br)c(C(=O)NCC2CCN(C(=O)c3ccoc3)CC2)c1 read 1.69% and 1.172%. For Cc1nc(CNC(=O)NCC(O)c2ccccc2)cs1 (stereo not shown) the result was -64.04% and -2.306%. Cc1cncc(C2CCCN(Cc3ccncc3)C2)n1 (stereo not shown) read -9.679%. COCC1c2nnn(CC3CC3)c2CCN1C(=O)C1CCOCC1 (stereo not shown) read -10.44% and 0.9697%.

The last 4 entries again:

| compound | Percent Effect |
|---|---|
| `COc1ccc(Br)c(C(=O)NCC2CCN(C(=O)c3ccoc3)CC2)c1` | 1.69 and 1.172 |
| `Cc1nc(CNC(=O)NCC(O)c2ccccc2)cs1` (stereo not shown) | -64.04 and -2.306 |
| `Cc1cncc(C2CCCN(Cc3ccncc3)C2)n1` (stereo not shown) | -9.679 |
| `COCC1c2nnn(CC3CC3)c2CCN1C(=O)C1CCOCC1` (stereo not shown) | -10.44 and 0.9697 |